PubChem BioAssay AID256 (DTP/NCI, 2004)
The list is a part of this screen's results and no random one: it is rich in T/C values a quarter to a half above the control, in often repeated tests (any T/C) and in doses without a T/C. Further doses and runs are listed elsewhere. T/C: endpoint of the treated group in % of that of the vehicle group. Some entries give survivors of the animals treated and no T/C: the source holds a T/C of zero for them, seemingly a mark for toxic or unscored doses. Some doses without a T/C left all or most animals alive at the check, yet need not have been tolerated: survival well below the control is almost never listed, so the zero probably covers shortened survival too. Survivors were counted at the toxicity check, usually on the fifth day, unless a day is given; later deaths do not show. Schedule codes are those of the source, read here as Q, the interval in days (D) or hours (H), X, the number of doses. Some structures stand for samples that the source files as different forms (salt, stereo form or complex); doses refer to the form tested. Where survival is the endpoint, this PubChem deposit counts one and a half times the control or more as active, and values a quarter to a half above the control carry no call in these data; other NCI protocols may use other cut-offs. Some entries were tested several times; the results are listed from low to high. Some T/C values carry the count of animals alive at the toxicity check (mostly the fifth day); where none is given, no animal had died by that day.

Tested on: CD2F1 mice, L1210 leukemia ip, survival T/C
Assay: NCI In Vivo Anticancer Drug Screen. Data for tumor model L1210 Leukemia (intraperitoneal) in CD2F1 (CDF1) mice
Conditions: higher T/C = longer survival
Method in brief: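 Compound-dosed mice with transplantable tumor versus matched vehicle controls; endpoint ratio T/C reported.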

[1] = T/C endpoint: mean survival time, dose: 50.0 mg/kg/injection, schedule: Q04DX002 (ip), vehicle: saline with Tween-80
[2] = T/C endpoint: mean survival time, dose: 100.0 mg/kg/injection, schedule: Q04DX002 (ip), vehicle: saline with Tween-80
[3] = T/C endpoint: mean survival time, dose: 400.0 mg/kg/injection, schedule: Q04DX002 (ip), vehicle: saline with Tween-80
[4] = T/C endpoint: mean survival time, dose: 200.0 mg/kg/injection, schedule: Q01DX001 (ip), vehicle: saline with Tween-80
[5] = T/C endpoint: mean survival time, dose: 400.0 mg/kg/injection, schedule: Q01DX001 (ip), vehicle: saline with Tween-80
[6] = T/C endpoint: mean survival time, dose: 400.0 mg/kg/injection, schedule: Q04DX003 (ip), vehicle: saline with Tween-80
[7] = T/C endpoint: mean survival time, dose: 400.0 mg/kg/injection, schedule: Q01DX009 (ip), vehicle: saline with Tween-80
[8] = T/C endpoint: mean survival time, dose: 200.0 mg/kg/injection, schedule: Q04DX003 (ip), vehicle: saline with Tween-80
[9] = T/C endpoint: mean survival time, dose: 400.0 mg/kg/injection, schedule: Q04DX003 (ip), vehicle: saline
[10] = T/C endpoint: mean survival time, dose: 50.0 mg/kg/injection, schedule: Q01DX009 (ip), vehicle: saline with Tween-80
[11] = T/C endpoint: mean survival time, dose: 100.0 mg/kg/injection, schedule: Q01DX009 (ip), vehicle: saline with Tween-80
[12] = T/C endpoint: mean survival time, dose: 50.0 mg/kg/injection, schedule: Q04DX003 (ip), vehicle: saline with Tween-80
[13] = T/C endpoint: mean survival time, dose: 100.0 mg/kg/injection, schedule: Q04DX003 (ip), vehicle: saline with Tween-80

O=C1SC(c2ccccc2)=S=C1c1ccccc1
survivor count (T/C endpoint: median survival time, dose: 800.0 mg/kg/injection, schedule: Q01DX009 (ip), vehicle: saline with Tween-80): 4 of 6

C=CS(=O)(=O)c1ccc([N+](=O)[O-])cc1
survivor count (T/C endpoint: mean survival time, dose: 12.5 mg/kg/injection, schedule: Q04DX002 (ip), vehicle: saline with Tween-80): 3 of 3 | survivor count [1]: 3 of 3

O=P(NCCCO)(OCc1ccccc1)N(CCCl)CCCl (stereo unspecified)
T/C (T/C endpoint: mean survival time, dose: 490.0 mg/kg/injection, schedule: Q01DX001 (ip), vehicle: other): 128 % of control | T/C (T/C endpoint: mean survival time, dose: 500.0 mg/kg/injection, schedule: Q01DX001 (ip), vehicle: DMSO): 134 % of control | T/C (T/C endpoint: mean survival time, dose: 700.0 mg/kg/injection, schedule: Q01DX001 (ip), vehicle: other): 147 % of control | survivor count (T/C endpoint: mean survival time, dose: 1428.0 mg/kg/injection, schedule: Q01DX001 (ip), vehicle: other): 2 of 6

CCOC(=O)Nc1cc(Nc2ccccc2)c(N)c(N)n1
survivor count (T/C endpoint: mean survival time, dose: 400.0 mg/kg/injection, schedule: Q01DX001 (ip), vehicle: saline): 0 of 6

CCCCC(/C=N/N=C/C(CC)CCCC)CC (stereo unspecified)
survivor count [2]: 3 of 3 | survivor count [3]: 3 of 3

COc1ccccc1NC1=NCCO1
survivor count [4]: 1 of 6 | survivor count [5]: 0 of 6

OC1C2CCC1C(N1CCOCC1)CC2 (stereo unspecified)
survivor count [6]: 0 of 6

CSc1sc2ccccc2[n+]1C
T/C (T/C endpoint: mean survival time, dose: 100.0 mg/kg/injection, schedule: Q01DX009 (ip), vehicle: saline): 127 % of control

C[n+]1ccc2c(Br)cccc2c1
survivor count (T/C endpoint: mean survival time, dose: 150.0 mg/kg/injection, schedule: Q01DX001 (ip), vehicle: saline): 3 of 6 | survivor count (T/C endpoint: mean survival time, dose: 300.0 mg/kg/injection, schedule: Q01DX001 (ip), vehicle: saline): 3 of 6

O=C(CNC(=O)Nc1cccc([N+](=O)[O-])c1)NNC(=O)Nc1ccc(Cl)c([N+](=O)[O-])c1
survivor count [7]: 4 of 6

CC1=CCCN(CCc2c[nH]c3ccccc23)C1
survivor count [8]: 1 of 6 | survivor count [5]: 0 of 6

CCC1(O)C(=O)OCc2c1cc1n(c2=O)Cc2cc3cc(O)c(O)cc3nc2-1 (stereo unspecified)
T/C (T/C endpoint: median survival time, dose: 10.0 mg/kg/injection, schedule: Q04DX002 (ip), vehicle: saline with Tween-80): 135 % of control | T/C (T/C endpoint: median survival time, dose: 20.0 mg/kg/injection, schedule: Q04DX002 (ip), vehicle: saline with Tween-80): 135 and 142 % of control | T/C (T/C endpoint: median survival time, dose: 80.0 mg/kg/injection, schedule: Q04DX002 (ip), vehicle: saline with Tween-80): 143 % of control

CN(Cc1ccccc1)Cc1ccccc1
survivor count (T/C endpoint: mean survival time, dose: 400.0 mg/kg/injection, schedule: Q04DX002 (ip), vehicle: saline): 1 of 3

N#Cc1cc(Cl)c(OCc2ccccc2)c(Cl)c1
survivor count [4]: 6 of 6

CCc1ccc(C(=O)O)cc1S(=O)(=O)Cl
survivor count [8]: 0 of 6 | survivor count [6]: 2 of 6

CCC(CN(C)C)C(=O)c1ccccc1 (stereo unspecified)
survivor count [2]: 3 of 3 | survivor count [3]: 0 of 3 | survivor count [9]: 0 of 6

CCCCNC(C)(C)C(SSC(c1ccc(Cl)cc1)C(C)(C)NCCCC)c1ccc(Cl)cc1 (stereo unspecified)
survivor count [10]: 5 of 6 | survivor count [11]: 3 of 6 | survivor count [8]: 5 of 6 | survivor count [6]: 0 of 6

Oc1ccccc1/C=N/c1nc(-c2ccccc2)cs1.Oc1ccccc1/C=N/c1nc(-c2ccccc2)cs1.[Zn]
survivor count [4]: 3 of 3 | survivor count [5]: 3 of 3

Oc1ccc(Br)cc1/C=N/c1nc(-c2ccccc2)cs1.Oc1ccc(Br)cc1/C=N/c1nc(-c2ccccc2)cs1.[Cu]
survivor count (T/C endpoint: mean survival time, dose: 100.0 mg/kg/injection, schedule: Q01DX001 (ip), vehicle: saline with Tween-80): 3 of 3 | survivor count [5]: 2 of 3

CC/C(=C/c1ccc2c(c1)OCO2)[N+](=O)[O-]
survivor count [4]: 0 of 6 | survivor count [5]: 0 of 6

CCCCc1ccc2nc(NC(=O)OC)[nH]c2c1
T/C (T/C endpoint: mean survival time, dose: 25.0 mg/kg/injection, schedule: Q01DX009 (ip), vehicle: saline with Tween-80): 128 % of control | T/C [10]: 134 % of control

Cc1ccc(NC(=O)Nc2ccccc2C(N)=O)cc1C
survivor count [10]: 2 of 3

CCN(CC)Cc1ccc(Nc2cc(C)nc(/N=C(\N)Nc3ccc(Cl)c(Cl)c3)n2)cc1
survivor count [12]: 5 of 6 | survivor count [13]: 5 of 6 | survivor count [8]: 1 of 6 | survivor count [6]: 0 of 6

CCC(=O)Oc1ccc(C2N(Cc3ccc(N(C)C)cc3)CCCN2Cc2ccc(N(C)C)cc2)cc1
survivor count [10]: 6 of 6 | survivor count [11]: 4 of 6 | survivor count [6]: 6 of 6

CCCCNc1ncnc2c1cnn2C
survivor count (T/C endpoint: median survival time, dose: 250.0 mg/kg/injection, schedule: Q01DX009 (ip), vehicle: saline): 0 of 6

Cc1ccc(N=NN(C)C)cc1
T/C (T/C endpoint: mean survival time, dose: 37.5 mg/kg/injection, schedule: Q01DX009 (ip), vehicle: Klucel (hydroxypropylcellulose) (HPC)): 143 % of control | survivor count (T/C endpoint: mean survival time, dose: 150.0 mg/kg/injection, schedule: Q01DX009 (ip), vehicle: Klucel (hydroxypropylcellulose) (HPC)): 0 of 6 | survivor count (T/C endpoint: mean survival time, dose: 300.0 mg/kg/injection, schedule: Q01DX009 (ip), vehicle: Klucel (hydroxypropylcellulose) (HPC)): 0 of 6

c1ccc(C[n+]2ccc3ccccc3c2)cc1
survivor count [12]: 6 of 6 | survivor count [13]: 1 of 6 | survivor count [8]: 0 of 6

COC(=O)c1ccc(O)c([N+](=O)[O-])c1
survivor count [6]: 5 of 6

O=C(O)/C=C(/CC(=O)O)C(=O)O
survivor count [9]: 2 of 6

CC(C)CNC(=O)c1ccc(N=NN(C)Cc2ccncc2)cc1
survivor count (T/C endpoint: mean survival time, dose: 200.0 mg/kg/injection, schedule: Q01DX009 (ip), vehicle: saline with Tween-80): 3 of 6 | survivor count [6]: 0 of 6

NC(CSS(=O)(=O)O)=NCCc1cccs1
survivor count [1]: 0 of 3

C[N+](C)(C)CC1CS1 (stereo unspecified)
survivor count (T/C endpoint: mean survival time, dose: 75.0 mg/kg/injection, schedule: Q04DX003 (ip), vehicle: saline): 1 of 6 | survivor count (T/C endpoint: mean survival time, dose: 150.0 mg/kg/injection, schedule: Q04DX003 (ip), vehicle: saline): 0 of 6 | survivor count (T/C endpoint: mean survival time, dose: 300.0 mg/kg/injection, schedule: Q04DX003 (ip), vehicle: saline): 0 of 6

C=CCN(N=O)C(=O)OCC
survivor count (T/C endpoint: mean survival time, dose: 200.0 mg/kg/injection, schedule: Q01DX009 (ip), vehicle: other): 3 of 6

COC(=O)C1CC[N-]CC1.COC(=O)C1CC[N-]CC1.[Cl][Pt+2][Cl]
survivor count [7]: 1 of 6

O=[N+]([O-])c1ccc(F)cc1
survivor count (T/C endpoint: mean survival time, dose: 100.0 mg/kg/injection, schedule: Q04DX003 (ip), vehicle: saline): 3 of 6 | survivor count (T/C endpoint: mean survival time, dose: 200.0 mg/kg/injection, schedule: Q04DX003 (ip), vehicle: saline): 0 of 6 | survivor count [9]: 1 of 6

O=C(Nc1cccc(Cl)c1)Nc1ccccc1Cl
survivor count [13]: 6 of 6

CCC(C)N(C)/N=N/c1nc[nH]c1C(N)=O (stereo unspecified)
T/C [13]: 127 % of control | T/C (T/C endpoint: mean survival time, dose: 133.0 mg/kg/injection, schedule: Q01DX009 (ip), vehicle: saline with Tween-80): 132 % of control [5 of 6 alive] | T/C [8]: 138 % of control | survivor count (T/C endpoint: mean survival time, dose: 300.0 mg/kg/injection, schedule: Q01DX009 (ip), vehicle: saline with Tween-80): 3 of 6 | survivor count [6]: 1 of 6

COS(=O)(=O)O
survivor count [9]: 3 of 6

CSc1nc2c(c(=O)[nH]1)c1c(N)ncnc1n2C1OC(CO)C(O)C1O (stereo unspecified)
survivor count (T/C endpoint: mean survival time, dose: 400.0 mg/kg/injection, schedule: Q01DX005 (ip), vehicle: water): 2 of 4

C=CCC#N
survivor count (T/C endpoint: mean survival time, dose: 200.0 mg/kg/injection, schedule: Q04DX003 (ip), vehicle: saline sonified): 0 of 6 | survivor count (T/C endpoint: mean survival time, dose: 400.0 mg/kg/injection, schedule: Q04DX003 (ip), vehicle: saline sonified): 0 of 6

CC1NCCOC1c1ccccc1 (stereo unspecified)
survivor count [9]: 0 of 6

CC(=O)OC1CCC2(C)C(=CCC3C4CC(C=O)=C(Cl)NC4(C)CCC32)C1 (stereo unspecified)
survivor count [4]: 6 of 6
